Consider 3 substances from article doi:10.1101/2023.07.25.550448.

Sequences of proteins named here, by UniProt entry; tags and fusion partners are left off. A change or cut given only in a name is not applied to a line headed by its entry. A line that says so, or that is headed by a name, gives the form on record, which may keep a tag or linker.
His6-p97 Y143A (P55072, form named): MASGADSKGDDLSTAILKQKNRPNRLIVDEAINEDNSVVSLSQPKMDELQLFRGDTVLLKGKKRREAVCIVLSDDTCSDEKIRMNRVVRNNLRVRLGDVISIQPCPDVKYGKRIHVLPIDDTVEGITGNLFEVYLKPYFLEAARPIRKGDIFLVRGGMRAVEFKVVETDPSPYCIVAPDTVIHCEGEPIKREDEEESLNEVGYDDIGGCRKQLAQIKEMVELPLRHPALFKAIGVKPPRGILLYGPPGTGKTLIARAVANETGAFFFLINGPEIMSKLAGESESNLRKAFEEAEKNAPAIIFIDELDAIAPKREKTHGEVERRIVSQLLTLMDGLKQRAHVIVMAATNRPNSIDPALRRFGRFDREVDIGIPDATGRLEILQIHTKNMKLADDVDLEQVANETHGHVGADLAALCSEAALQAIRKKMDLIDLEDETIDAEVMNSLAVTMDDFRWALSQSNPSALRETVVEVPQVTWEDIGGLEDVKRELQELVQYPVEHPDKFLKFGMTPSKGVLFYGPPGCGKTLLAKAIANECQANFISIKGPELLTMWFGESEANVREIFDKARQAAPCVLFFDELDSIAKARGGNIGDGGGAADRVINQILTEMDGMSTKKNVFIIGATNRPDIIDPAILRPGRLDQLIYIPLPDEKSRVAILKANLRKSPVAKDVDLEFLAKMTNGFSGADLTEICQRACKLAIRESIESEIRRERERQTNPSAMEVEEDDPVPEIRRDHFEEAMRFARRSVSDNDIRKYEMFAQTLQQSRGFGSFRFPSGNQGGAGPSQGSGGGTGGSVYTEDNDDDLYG

Results are given in words; binding and its absence hold for the method and conditions named. For some of these results: Binding seen in cells or lysates may run through a third protein. Some binding calls cover weakened binding; strength is not graded here. For some of these results: Where a sequence is shown, tags or fusion partners need not be part of it.

One experiment has as its target T1, His6-p47 (UniProt Q9UNZ2).
T1 sequence: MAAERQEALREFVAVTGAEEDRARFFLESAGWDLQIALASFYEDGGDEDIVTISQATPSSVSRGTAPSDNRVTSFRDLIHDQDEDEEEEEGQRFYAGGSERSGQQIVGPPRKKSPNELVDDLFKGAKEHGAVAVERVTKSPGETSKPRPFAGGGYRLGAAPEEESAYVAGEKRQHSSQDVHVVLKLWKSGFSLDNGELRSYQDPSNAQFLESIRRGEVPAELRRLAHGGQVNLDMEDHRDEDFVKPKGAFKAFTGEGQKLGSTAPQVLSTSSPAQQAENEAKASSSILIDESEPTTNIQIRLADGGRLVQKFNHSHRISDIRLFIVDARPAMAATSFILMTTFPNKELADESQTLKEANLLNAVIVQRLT
Description: co-IP.

The target in another experiment is VCF1-4 peptide (human). Description: pull-down.
In the next experiment the target is VCF1-2 peptide (human). The experiment in a line: pull-down.
Another experiment deals with VCF1-3 peptide (human). The experiment in a line: pull-down.
The target of another experiment is VCF1-1 peptide (human). The experiment in a line: pull-down.
In the next experiment the target is VCF1-5 peptide (human). Description: pull-down.

With His6-p97 WT (from UniProt P55072 1-806), the binding result with His6-p47 is reported as “binds”.

“His6-p97 Y143A (from UniProt P55072 1-806)”: in the experiment with His6-p47, the binding result was “binds”.

“p97 (endogenous, U2OS) (from UniProt P55072 1-806)”: the binding entry with VCF1-4 peptide (human), in the experiment with VCF1-2 peptide (human), in the experiment with VCF1-3 peptide (human), with VCF1-1 peptide (human) and in the experiment with VCF1-5 peptide (human) was “no binding” throughout.
